{"source": "patent US9669031B2", "about": "“MNK inhibitors and methods related thereto” (eFFECTOR Therapeutics, Inc., priority 2014, dated 2017)", "key": {"in vivo [1]": {"experiment": "in vivo", "conditions": "female, Balb/c, mouse, po, 10 mg/kg"}, "in vivo [2]": {"experiment": "in vivo", "conditions": "female, Balb/c, mouse, iv, 1 mg/kg"}, "[3]": {"experiment": "Pharmacokinetics in Balb/c mice, single oral gavage administration"}}, "data": [{"smiles": "Cc1cc(Nc2cc(N)ncn2)c(=O)n2c1C(=O)NC21CCC(F)(F)CC1.Cl", "note": "[Cpd. No. 103, 6-[(6-aminopyrimidin-4-yl)amino]-4′,4′-difluoro-8-methyl-spiro[2H-imidazo[1,5-a]pyridine-3,1′-cyclohexane]-1,5-dione hydrochloride]", "values": [{"measurement": "AUC(0-t)", "setting": "in vivo [1]", "value": 4650, "unit": "ng·h/mL"}, {"measurement": "Cmax", "setting": "in vivo [1]", "value": 2500, "unit": "ng/mL"}, {"measurement": "half-life", "setting": "in vivo [1]", "value": 2.1, "unit": "h"}, {"measurement": "AUC(0-inf)", "setting": "in vivo [2]", "value": 600, "unit": "ng·h/mL"}, {"measurement": "Vd", "setting": "in vivo [2]", "value": 2.49, "unit": "L/kg"}, {"measurement": "half-life", "setting": "in vivo [2]", "value": 1.51, "unit": "h"}, {"measurement": "Tlast", "setting": "[3]; Balb/c mice, oral gavage 10 mg/kg, formulation 10NMP/90PEG400, gender F", "value": 8, "unit": "h"}, {"measurement": "Tmax", "setting": "[3]; female, Balb/c, mouse, in vivo, po, 10 mg/kg", "value": 0.3, "unit": "h"}]}]}
